Laboratory results published in the supplement of paper PMC12819154, “High-throughput peptide-centric local stability assay extends protein–ligand identification to membrane proteins, tissues and bacteria” (Nature Structural & Molecular Biology, 2025).
Some of the results follow. Small differences around the control level are noise.

By UniProt entry, the sequences of proteins in these tests, tags left out. Where a name states a change or a piece, a line headed by the entry shows the natural chain unless it says otherwise.
UniProt Q92572: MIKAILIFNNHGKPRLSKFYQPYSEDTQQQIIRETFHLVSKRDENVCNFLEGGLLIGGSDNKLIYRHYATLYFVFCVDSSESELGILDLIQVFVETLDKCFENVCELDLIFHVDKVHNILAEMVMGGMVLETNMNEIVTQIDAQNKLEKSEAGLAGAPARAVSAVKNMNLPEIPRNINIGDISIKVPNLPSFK
UniProt Q92560: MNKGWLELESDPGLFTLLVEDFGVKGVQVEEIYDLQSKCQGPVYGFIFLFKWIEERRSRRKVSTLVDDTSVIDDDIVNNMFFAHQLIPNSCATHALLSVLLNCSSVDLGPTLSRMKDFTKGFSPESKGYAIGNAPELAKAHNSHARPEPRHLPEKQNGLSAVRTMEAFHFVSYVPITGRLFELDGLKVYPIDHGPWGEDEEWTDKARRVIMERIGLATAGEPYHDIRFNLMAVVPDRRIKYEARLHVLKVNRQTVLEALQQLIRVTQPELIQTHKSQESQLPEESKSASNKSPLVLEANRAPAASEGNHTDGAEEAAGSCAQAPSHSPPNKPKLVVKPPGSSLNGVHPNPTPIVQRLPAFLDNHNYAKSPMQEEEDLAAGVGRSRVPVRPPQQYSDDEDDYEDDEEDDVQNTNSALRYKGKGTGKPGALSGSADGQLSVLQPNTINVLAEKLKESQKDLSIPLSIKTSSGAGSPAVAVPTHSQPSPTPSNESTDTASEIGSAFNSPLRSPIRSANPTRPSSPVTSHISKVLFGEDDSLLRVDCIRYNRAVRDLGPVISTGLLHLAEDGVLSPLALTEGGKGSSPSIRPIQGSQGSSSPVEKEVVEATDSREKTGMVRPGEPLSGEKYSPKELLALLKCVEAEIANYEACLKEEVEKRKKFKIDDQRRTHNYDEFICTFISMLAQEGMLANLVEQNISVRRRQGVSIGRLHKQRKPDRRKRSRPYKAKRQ
UniProt Q8WXF1: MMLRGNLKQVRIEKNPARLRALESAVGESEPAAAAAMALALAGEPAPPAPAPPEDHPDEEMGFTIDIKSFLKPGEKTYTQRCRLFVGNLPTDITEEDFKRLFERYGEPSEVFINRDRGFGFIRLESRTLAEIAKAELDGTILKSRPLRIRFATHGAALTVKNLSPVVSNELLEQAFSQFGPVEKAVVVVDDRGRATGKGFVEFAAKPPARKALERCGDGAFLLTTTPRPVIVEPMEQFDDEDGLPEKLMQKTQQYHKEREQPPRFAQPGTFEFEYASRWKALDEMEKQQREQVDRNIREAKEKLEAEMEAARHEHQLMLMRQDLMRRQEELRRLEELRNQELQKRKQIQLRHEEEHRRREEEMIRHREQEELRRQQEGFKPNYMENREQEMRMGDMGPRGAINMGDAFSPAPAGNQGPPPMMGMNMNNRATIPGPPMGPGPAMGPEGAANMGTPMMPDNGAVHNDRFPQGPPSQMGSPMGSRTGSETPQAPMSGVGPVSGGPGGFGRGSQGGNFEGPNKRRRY
UniProt Q8TF68: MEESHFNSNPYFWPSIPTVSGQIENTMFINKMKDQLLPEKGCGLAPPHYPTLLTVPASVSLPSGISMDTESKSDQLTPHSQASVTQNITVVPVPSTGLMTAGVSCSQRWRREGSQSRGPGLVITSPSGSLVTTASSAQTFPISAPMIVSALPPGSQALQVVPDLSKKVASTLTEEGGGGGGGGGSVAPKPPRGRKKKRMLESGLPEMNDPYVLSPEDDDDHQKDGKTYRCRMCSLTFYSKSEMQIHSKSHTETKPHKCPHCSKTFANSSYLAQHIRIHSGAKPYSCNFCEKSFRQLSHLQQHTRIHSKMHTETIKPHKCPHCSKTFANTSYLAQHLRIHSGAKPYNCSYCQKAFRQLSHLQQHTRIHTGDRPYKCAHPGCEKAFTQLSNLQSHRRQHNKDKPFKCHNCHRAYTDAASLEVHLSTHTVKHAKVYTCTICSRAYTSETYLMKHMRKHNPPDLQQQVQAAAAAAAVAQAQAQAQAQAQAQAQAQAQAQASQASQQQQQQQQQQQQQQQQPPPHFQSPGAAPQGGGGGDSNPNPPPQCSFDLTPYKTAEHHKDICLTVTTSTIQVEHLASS
UniProt Q8WV07: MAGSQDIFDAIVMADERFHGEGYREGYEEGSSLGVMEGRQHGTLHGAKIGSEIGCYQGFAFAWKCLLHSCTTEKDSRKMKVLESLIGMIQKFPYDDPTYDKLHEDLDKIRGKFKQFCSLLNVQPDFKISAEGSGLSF
UniProt Q92567: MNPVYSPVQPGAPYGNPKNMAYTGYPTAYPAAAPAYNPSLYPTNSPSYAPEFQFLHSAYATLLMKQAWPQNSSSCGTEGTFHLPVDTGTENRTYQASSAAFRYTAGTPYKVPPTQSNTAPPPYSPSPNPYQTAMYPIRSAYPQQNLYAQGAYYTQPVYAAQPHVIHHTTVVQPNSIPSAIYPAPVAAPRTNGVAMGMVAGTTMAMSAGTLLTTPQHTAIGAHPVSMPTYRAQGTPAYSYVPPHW
UniProt Q8WWI1: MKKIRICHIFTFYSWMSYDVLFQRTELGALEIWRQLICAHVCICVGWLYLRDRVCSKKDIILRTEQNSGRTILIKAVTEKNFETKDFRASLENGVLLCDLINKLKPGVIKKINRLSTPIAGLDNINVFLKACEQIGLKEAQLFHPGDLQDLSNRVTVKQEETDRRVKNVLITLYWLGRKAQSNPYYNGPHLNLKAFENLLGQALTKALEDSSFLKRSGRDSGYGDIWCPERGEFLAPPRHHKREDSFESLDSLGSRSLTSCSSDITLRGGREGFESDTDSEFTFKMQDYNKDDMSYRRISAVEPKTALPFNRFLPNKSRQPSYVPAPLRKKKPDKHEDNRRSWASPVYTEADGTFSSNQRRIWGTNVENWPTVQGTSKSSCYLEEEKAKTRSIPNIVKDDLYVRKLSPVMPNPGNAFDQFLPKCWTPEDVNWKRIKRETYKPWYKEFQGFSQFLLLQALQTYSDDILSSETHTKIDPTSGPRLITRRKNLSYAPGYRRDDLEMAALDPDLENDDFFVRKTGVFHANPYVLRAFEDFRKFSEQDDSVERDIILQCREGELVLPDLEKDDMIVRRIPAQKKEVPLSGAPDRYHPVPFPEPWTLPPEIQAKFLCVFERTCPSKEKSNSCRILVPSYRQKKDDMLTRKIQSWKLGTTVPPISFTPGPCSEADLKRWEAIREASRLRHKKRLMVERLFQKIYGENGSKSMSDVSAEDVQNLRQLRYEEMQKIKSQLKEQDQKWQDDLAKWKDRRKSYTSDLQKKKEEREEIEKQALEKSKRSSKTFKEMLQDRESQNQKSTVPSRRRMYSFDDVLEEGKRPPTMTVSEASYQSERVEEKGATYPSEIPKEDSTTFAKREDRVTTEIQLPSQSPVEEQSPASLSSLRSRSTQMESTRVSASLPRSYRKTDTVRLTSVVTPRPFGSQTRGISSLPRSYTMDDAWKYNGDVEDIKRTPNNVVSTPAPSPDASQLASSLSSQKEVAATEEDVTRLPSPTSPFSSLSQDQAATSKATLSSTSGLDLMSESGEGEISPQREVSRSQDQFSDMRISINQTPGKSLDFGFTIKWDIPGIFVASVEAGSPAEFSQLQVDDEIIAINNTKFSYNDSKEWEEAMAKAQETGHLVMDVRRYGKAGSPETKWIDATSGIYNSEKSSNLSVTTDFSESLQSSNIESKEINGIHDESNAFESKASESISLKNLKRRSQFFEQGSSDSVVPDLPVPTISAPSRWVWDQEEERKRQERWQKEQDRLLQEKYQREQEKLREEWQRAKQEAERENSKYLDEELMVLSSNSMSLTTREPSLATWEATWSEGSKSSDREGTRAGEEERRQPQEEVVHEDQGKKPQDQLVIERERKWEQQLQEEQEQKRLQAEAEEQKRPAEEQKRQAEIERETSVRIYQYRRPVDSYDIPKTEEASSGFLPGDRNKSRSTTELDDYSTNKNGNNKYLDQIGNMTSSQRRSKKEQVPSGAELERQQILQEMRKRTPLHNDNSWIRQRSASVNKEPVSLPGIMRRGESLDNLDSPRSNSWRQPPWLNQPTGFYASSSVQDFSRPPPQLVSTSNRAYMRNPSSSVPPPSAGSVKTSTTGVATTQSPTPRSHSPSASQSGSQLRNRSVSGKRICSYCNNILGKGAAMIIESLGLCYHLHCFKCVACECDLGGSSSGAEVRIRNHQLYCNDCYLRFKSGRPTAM
UniProt Q8WUA7: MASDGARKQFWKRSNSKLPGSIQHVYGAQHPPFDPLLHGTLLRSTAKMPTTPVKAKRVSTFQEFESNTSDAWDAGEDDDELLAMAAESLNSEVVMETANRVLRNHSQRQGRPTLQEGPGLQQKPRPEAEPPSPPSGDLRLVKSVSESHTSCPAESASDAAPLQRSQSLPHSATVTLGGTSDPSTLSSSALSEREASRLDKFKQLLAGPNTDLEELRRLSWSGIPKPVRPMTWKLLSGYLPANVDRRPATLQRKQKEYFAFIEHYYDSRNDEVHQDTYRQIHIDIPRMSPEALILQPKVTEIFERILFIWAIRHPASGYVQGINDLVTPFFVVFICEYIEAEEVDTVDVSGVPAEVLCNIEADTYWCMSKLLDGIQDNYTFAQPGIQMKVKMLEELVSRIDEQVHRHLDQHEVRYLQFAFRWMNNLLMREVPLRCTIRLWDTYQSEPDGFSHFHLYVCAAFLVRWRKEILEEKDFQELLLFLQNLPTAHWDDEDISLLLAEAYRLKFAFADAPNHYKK
UniProt Q8WWW8: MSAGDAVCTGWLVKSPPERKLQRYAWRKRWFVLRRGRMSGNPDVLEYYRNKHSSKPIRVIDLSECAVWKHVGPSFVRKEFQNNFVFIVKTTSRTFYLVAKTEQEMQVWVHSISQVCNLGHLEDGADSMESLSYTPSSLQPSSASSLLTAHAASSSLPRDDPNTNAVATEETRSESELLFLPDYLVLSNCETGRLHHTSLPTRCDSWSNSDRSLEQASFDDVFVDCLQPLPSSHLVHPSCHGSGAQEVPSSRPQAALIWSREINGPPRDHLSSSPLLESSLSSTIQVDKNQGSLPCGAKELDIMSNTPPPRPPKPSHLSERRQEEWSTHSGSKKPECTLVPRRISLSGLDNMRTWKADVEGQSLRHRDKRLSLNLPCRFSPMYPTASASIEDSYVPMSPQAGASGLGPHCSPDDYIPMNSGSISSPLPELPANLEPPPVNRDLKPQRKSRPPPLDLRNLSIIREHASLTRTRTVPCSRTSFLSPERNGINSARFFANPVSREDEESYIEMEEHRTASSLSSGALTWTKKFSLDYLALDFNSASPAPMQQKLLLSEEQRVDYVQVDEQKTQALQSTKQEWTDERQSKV

Each target was assayed with CN[C@@H]1C[C@H]2O[C@@](C)([C@@H]1OC)n1c3ccccc3c3c4c(c5c6ccccc6n2c5c31)C(=O)NC4 [staurosporine] (assay: log2 fold change of tryptic peptide abundance, ligand vs vehicle (limited proteolysis) (log2 ratio); higher = more trypsin-susceptible (destabilized)). Settings: ligand concentration: 20 uM; sample: K562 cleared lysate; digestion: 4 min, 22 C (HT-PELSA RT4min, Orbitrap Astral).

Target | log2 fold change
UniProt Q92572 (peptide sequence: VPNLPSFK, peptide start residue: 186) | 0.0666
BAP1 (peptide sequence: SPMQEEEDLAAGVGR, peptide start residue: 369) (UniProt Q92560) | 0.249
PSPC1 (peptide sequence: DRGFGFIR, peptide start residue: 116) (UniProt Q8WXF1) | 0.37
ZNF384 (peptide sequence: AFTQLSNLQSHR, peptide start residue: 383) (UniProt Q8TF68) | -1.09
UniProt Q8WV07 (peptide sequence: FHGEGYR, peptide start residue: 18) | -0.159
UniProt Q92567 (peptide sequence: TYQASSAAFR, peptide start residue: 93) | -0.122
LMO7 (peptide sequence: SASVNKEPVSLPGIMR, peptide start residue: 1491) (UniProt Q8WWI1) | 0.388
TBC1D22A (peptide sequence: NDEVHQDTYR, peptide start residue: 269) (UniProt Q8WUA7) | 0.178
GAB3 (peptide sequence: ELDIMSNTPPPRPPKPSHLSER, peptide start residue: 299) (UniProt Q8WWW8) | 0.253
